Results published in PubChem BioAssay AID1259415 (National Center for Advancing Translational Sciences (NCATS), 2018).
Hit rate of the full screen: of about 410,000 compounds, about 18,000 (4.4%) were called active. The shares of active, inactive and inconclusive entries below differ from those in the screen. Cut-off read from the data, not from the text of the source: active = activity change below about -60%; inconclusive = no clear call, values can overlap the other calls; inactive = above about -39%.
% is set by controls: 0 for no effect and ±100 for the full control effect.

Test: qHTS Assay for inhibitors of the human cytomegalovirus (HCMV)
Conditions: HFF cells, HCMV-luciferase reporter, 72 h; at 57.5 µM; active compounds read low
How it was run: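 Cell-based, HFFs, 1000 cells/well, 16 h 37C; cpds in DMSO + HCMV-luc, MOI 1 PFU/cell; 72 h 37C; OneGlo luminescence after 5 min RT; norm. to buffer vs Salinomycin 10uM.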
For COc1cc(/C=C/C(=O)OCC(=O)N2CCN(C(=O)c3ccco3)CC2)ccc1O, the activity change, negative = inhibition was inconclusive: -48.5%. With CN1CCN(Cc2cc(COCc3ccccc3)c3cccnc3c2O)CC1 the activity change, negative = inhibition was inconclusive: -47.5%. With CC1=CC(C)(C)NC(=S)N1c1ccc2ccccc2c1 the activity change, negative = inhibition was inconclusive: -48.5%. With Cc1nc(C(=O)NNC(=O)c2ccc(C(F)(F)F)cc2)cs1 the activity change, negative = inhibition was active: -89.2%. In the case of O=C(CCc1ccccc1)NC(NC(=S)Nc1cccc(Cl)c1)C(Cl)(Cl)Cl (centres undefined), the activity change, negative = inhibition is reported as inconclusive: -46.5%. With O=C(CC(=O)c1ccccc1)Nc1cc(C(F)(F)F)ccc1Cl the activity change, negative = inhibition was inconclusive: -48.3%. For COc1cccc(CC2(CO)CCCN(Cc3c(C)cc(C)cc3-n3cccn3)C2)c1 (centres undefined), the activity change, negative = inhibition was active: -68.8%. For Clc1ccccc1/C=C/c1nc(-c2ccccn2)no1, the activity change, negative = inhibition was inconclusive: -57.2%. With COc1cc(/C=N\NC(=O)c2cccnc2)ccc1OC(=O)c1ccccc1Cl the activity change, negative = inhibition was inconclusive: -58.3%. For COc1ccccc1C1OC(c2cccc([N+](=O)[O-])c2)=NN1C(C)=O (centres undefined), the activity change, negative = inhibition was inconclusive: -40.3%. For Cc1ccc(CNC(=O)COC(=O)CCCOc2ccc(Cl)cc2Cl)cc1, the activity change, negative = inhibition was inconclusive: -41.3%. For CN(C)C=NC(=O)c1cccn1-c1ncc(C(F)(F)F)cc1Cl, the activity change, negative = inhibition was inconclusive: -45.6%. For COc1ccc(CC(=O)N2N=C(C)CC2(O)C(F)(F)F)cc1 (centres undefined), the activity change, negative = inhibition was inconclusive: -51.1%. In the case of Cc1ccccc1Oc1nc(-c2ccccn2)nc2ccccc12, the activity change, negative = inhibition is reported as active: -99.2%. With CCN(CC)c1ccc(C=C(c2nnnn2-c2ccc(C)cc2)c2nnnn2-c2ccc(C)cc2)cc1 the activity change, negative = inhibition was inconclusive: -54.6%. For CCC(=O)c1ccc(OCC(O)CNC(C)c2ccccc2)cc1 (centres undefined), the activity change, negative = inhibition was inconclusive: -40.7%. With Cc1cccn2c(=O)c(C(=O)NCc3cccc(F)c3)cnc12 the activity change, negative = inhibition was inactive: -13.6%. With CCOc1ccc(NC(=O)c2ccc(-n3cccn3)nc2)cc1 the activity change, negative = inhibition was inconclusive: -46.6%. In the case of Nc1cc(Cl)cc2c1-c1ccc(Cl)cc1C2O (centres undefined), the activity change, negative = inhibition is reported as inconclusive: -40.9%. For N=C1/C(=C\c2ccc(Br)o2)C(=O)N=C2SC(CC(=O)N3CCOCC3)=NN12, the activity change, negative = inhibition was inconclusive: -41.1%. In the case of Cc1cccc(CN(CC(=O)N/N=C/c2ccco2)S(=O)(=O)c2ccc(Cl)cc2)c1, the activity change, negative = inhibition is reported as inactive: -33.3%. For CCCN(CC(=O)Nc1ccc(F)c(F)c1F)C(=O)c1ccc2c(c1)NC(=O)CS2, the activity change, negative = inhibition was inconclusive: -41.1%. In the case of O=C(CCCCCn1c(=S)[nH]c2ccsc2c1=O)NC1CCCCC1, the activity change, negative = inhibition is reported as inconclusive: -42.2%. For Cc1ccc(CN2C(=O)[C@@H]3Cc4c([nH]c5ccccc45)C(C)(C)N3C2=O)cc1, the activity change, negative = inhibition was inconclusive: -42.7%. In the case of CCN(CC)C(=O)c1ccc(NC(=O)c2cccc(S(=O)(=O)N3CCN(Cc4ccccc4)CC3)c2)cc1, the activity change, negative = inhibition is reported as active: -77.9%. With CSc1ncccc1C(=O)OCC(=O)c1ccc(Br)s1 the activity change, negative = inhibition was inconclusive: -43.7%. In the case of CC1CCC2C(=O)N(c3ccc(Cc4ccncc4)cc3)C(=O)C2C1 (centres undefined), the activity change, negative = inhibition is reported as active: -74.9%. For CCOc1ccc(C(C)NC(=S)NCc2ccc(Cl)cc2)cc1 (centres undefined), the activity change, negative = inhibition was active: -74.1%. With CC1(C)Cc2nc3oc4c(SCC(N)=O)ncnc4c3cc2CO1 the activity change, negative = inhibition was inconclusive: -47.8%. For COc1ccccc1CN1CCC(CNS(=O)(=O)c2cc(-c3cc(C)no3)ccc2C)CC1, the activity change, negative = inhibition was inconclusive: -44%. With COC(=O)c1ccc2c(=O)n(CCN3CCOCC3)c(=S)[nH]c2c1 the activity change, negative = inhibition was inconclusive: -41.4%. For Cc1ccc(-n2ccnc(SCC(=O)NC3CCCC3)c2=O)cc1Cl, the activity change, negative = inhibition was inactive: -25.7%. For O=C(CN1CCN(S(=O)(=O)c2cc(Cl)ccc2Cl)CC1)Nc1ccc2c(c1)OCCO2, the activity change, negative = inhibition was inactive: 2.02%. For COc1cc2c(cc1OC)C(C)N(C(=O)c1cc3c(s1)-c1c(C)cccc1OC3)CC2 (centres undefined), the activity change, negative = inhibition was inconclusive: -40.9%. With CC1(C)CC(=O)C2=C(C1)NC(Nc1nc3ccccc3o1)=NC2c1ccccn1 (centres undefined) the activity change, negative = inhibition was inconclusive: -42.1%. For O=C(CCOc1ccccc1)N(Cc1cccnc1)c1nc2c(Cl)cccc2s1, the activity change, negative = inhibition was inconclusive: 0%. In the case of Cc1ccc(C(C(=O)NC2CCCC2)N(Cc2ccccc2)C(=O)c2csnn2)o1 (centres undefined), the activity change, negative = inhibition is reported as inconclusive: -49.8%. With O=S(=O)(Nc1nc2ccccc2nc1-[n+]1cccc(N=C([O-])c2ccc(Cl)cc2)c1)c1ccccc1 the activity change, negative = inhibition was inconclusive: -57.2%. With CN1C2CCC1CC(OC(c1ccccc1)c1ccccc1)C2 (centres undefined) the activity change, negative = inhibition was inactive: -31.5%. With COc1ccc(OC)c(N(CC(=O)NCC2CCCO2)S(=O)(=O)c2ccccc2)c1 (centres undefined) the activity change, negative = inhibition was active: -63%. With CC(=O)c1cccc(-c2ccnc3c2CC(C(=O)NCc2ccco2)O3)c1 (centres undefined) the activity change, negative = inhibition was inconclusive: -48.2%. For Nc1cc2c(cc1Cl)-c1ccc(Cl)cc1C2=O, the activity change, negative = inhibition was inconclusive: -45.3%. For Cc1cccc(Cn2c(=O)n(CCc3ccccc3)c(=O)c3sc4ccccc4c32)c1, the activity change, negative = inhibition was active: -95.5%. With COc1ccc(CCCNC(=O)C2Cc3c(-c4cccc(NC(C)=O)c4)ccnc3O2)cc1 (centres undefined) the activity change, negative = inhibition was active: -61.3%. For Cc1ccc(NC(=O)C(Nc2cccc(C)c2)c2ccccc2)cc1 (centres undefined), the activity change, negative = inhibition was inconclusive: -51.8%. For Cc1cc(NC(=O)/C(C#N)=C/c2ccc(-c3cccc(C(F)(F)F)c3)o2)n(-c2ccccc2)n1, the activity change, negative = inhibition was inconclusive: -40.2%. In the case of Cc1sc2ncn(-n3c(C)ccc3C)c(=O)c2c1C, the activity change, negative = inhibition is reported as inactive: -31.4%. In the case of CC1(C)Cc2c(c(N3CCOCC3)nc3sc4c(NN)ncnc4c23)CS1, the activity change, negative = inhibition is reported as active: -88.2%. For Cc1ccc(Cc2c(C)nc3nc(SCC(=O)NCCCN4CCCCC4)nn3c2C)cc1, the activity change, negative = inhibition was inconclusive: -48%. With CCOc1cc(C)c(S(=O)(=O)NC2CC(C)(C)NC(C)(C)C2)cc1C the activity change, negative = inhibition was inconclusive: -57.9%. In the case of CN([C@@H](C(=O)OC(C)(C)C)c1ccccc1)S(=O)(=O)c1cccc(S(=O)(=O)N(C)[C@@H](C(=O)OC(C)(C)C)c2ccccc2)c1, the activity change, negative = inhibition is reported as inconclusive: -52.7%. In the case of O=C(NC(=S)Nc1ccccc1N1CCOCC1)c1cccs1, the activity change, negative = inhibition is reported as active: -71.9%. With O=C(CSc1nnnn1Cc1ccccc1)NC1CCCCC1 the activity change, negative = inhibition was inconclusive: -48.6%. In the case of Cc1ccc2nc(CN(C)C(=O)[C@H]3O[C@@H](n4ccc(=O)[nH]c4=O)[C@H](O)[C@@H]3O)[nH]c2c1, the activity change, negative = inhibition is reported as inactive: 31.5%.
